From article doi:10.1101/2025.10.27.684930
These are yes or no findings as the source states them, for the method shown. Binding seen in cells or lysates may run through a third protein. Some results given as binding are weak or reduced against the parent protein; the word gives no strength. For some assays here: Where a sequence is shown, tags or fusion partners need not be part of it.

Tests used:
[1] = target: SBP-EGFP-tagged δ-opioid receptor (DOR) of DOR-RUSH HeLa cells (human) (UniProt P41143); experiment: co-IP
[2] = target: His-tagged mu-opioid receptor (MOR) co-expressed in Sf9 cells (UniProt P35372); experiment: pull-down + SEC

B1: cornichon homolog 1 (CNIH1), endogenous in HeLa cells (protein, UniProt O95406 1-144)
chain: MAFTFAAFCYMLALLLTAALIFFAIWHIIAFDELKTDYKNPIDQCNTLNPLVLPEYLIHAFFCVMFLCAAEWLTLGLNMPLLAYHIWRYMSRPVMSGPGLYDPTTIMNADILAYCQKEGWCKLAFYLLAFFYYLYGMIYVLVSS
[1]
  binding: binds

B2: Strep-tagged CNIH1 co-expressed in Sf9 cells (protein, UniProt O95406 1-144)
chain: B1 chain
[2]
  binding: binds
